This test relates to lateral olfactory tract (LOT) evoked responses. Description: Lateral olfactory tract (LOT) evoked responses in awake rats. In kind it is in vivo, Long-Evans rats. The following applies: Aricept 1.5 mg/kg ip alone. The procedure:
Chronic recording preparation: Adult male Long-Evans rats with recording and stimulating electrodes chronically implanted into different areas of the brain known to subserve memory were used. The electrodes were stereotaxically inserted under pentobarbital anesthesia (65 mg/kg), using procedures essentially as described in earlier work (Stäubli and Xu, Journal of Neuroscience 15: 2445-2452, 1995; Stäubli and Scafidi, Journal of Neuroscience 17: 4820-4828, 1997). Briefly, monopolar stimulating electrodes (125 μm) were placed into the perforant path projections to hippocampal dentate gyrus and into the lateral olfactory tract projections to olfactory cortex. Following these steps, the leads of the electrodes were connected to a headstage that is permanently affixed to the rat's skull.
The animals were allowed approximately 10 days for recovery before being acclimated to a chronic recording cage (30×30×58 cm) and the attachment of a recording lead to their headstage. Biphasic stimulation pulses were provided by a digital stimulator that allows precise control of current intensity and pulse duration. […] The evoked responses were monitored on a storage oscilloscope and digitized at 10 kHz. The peak amplitude, half-width and area of each response were measured on-line and stored on disk for off-line analysis. […]

In the case of `COc1cc2c(cc1OC)C(=O)C(CC1CCN(Cc3ccccc3)CC1)C2.Cl` (racemic) [Aricept, (±)-2,3-dihydro-5,6-dimethoxy-2-[[1-(phenylmethyl)-4-piperidinyl]methyl]-1H-inden-1-one hydrochloride, reference compound], the “effect on LOT responses” value is “little to no effect”.
